These results are taken from PMC8991007, “Benzylic Dehydroxylation of Echinocandin Antifungal Drugs Restores Efficacy against Resistance Conferred by Mutated Glucan Synthase” (Journal of the American Chemical Society, 2022).

*1 amine or outer side, *2 acyl side, *3 side chain or, on linkers, in order; H or OH if unused. Where a SMILES comes first, the peptide text is derived from it. Bridges are numbered along the chain shown (N, C = ends). [ ]: non-standard residue; d: D form. The star is where a group is joined. Orn(4R-OH,5R-OCH2CH2NMe3+) = C[N+](C)(C)CCO[C@@H](N[*:3])[C@H](O)C[C@H](N[*:1])C(=O)[*:2]; pTerphenylCO(4''-OnC5H11) = CCCCCOc1ccc(-c2ccc(-c3ccc(C(=O)*)cc3)cc2)cc1; Orn(4R-OH,5R-OH) = O=C([C@H](C[C@@H](O)[C@@H](O)N[*:3])N[*:1])[*:2]; Pro(3S-OH,4S-Me) = C[C@H]1CN[C@H](C(=O)O)[C@H]1O; hTyr(3R-OH) = N[C@H](C(=O)O)[C@H](O)Cc1ccc(O)cc1; Hyp = O=C(O)[C@@H]1C[C@@H](O)CN1

The test system of this data set is panel of 50 strains of C. albicans and C. glabrata. Description: MIC comparison of dehydroxy derivative versus parent across the strain panel. The format is cell-based.

On to `CCCCCOc1ccc(-c2ccc(-c3ccc(C(=O)N[C@H]4C[C@@H](O)[C@@H](OCC[N+](C)(C)C)NC(=O)[C@@H]5[C@@H](O)[C@@H](C)CN5C(=O)[C@H]([C@@H](C)O)NC(=O)[C@H]([C@H](O)Cc5ccc(O)cc5)NC(=O)[C@@H]5C[C@@H](O)CN5C(=O)[C@H]([C@@H](C)O)NC4=O)cc3)cc2)cc1` [Compound 2, dehydroxy-RZF] ({pTerphenylCO(4''-OnC5H11)}-[Orn(4R-OH,5R-OCH2CH2NMe3+)]T[Hyp][hTyr(3R-OH)]T[Pro(3S-OH,4S-Me)]; lactam 1-C), for which, where the note is “1 vs ANF, 2 vs RZF”, the “share of echinocandin-resistant strains against which activity is similar to that of parent” value is on record as 29%, the “share of echinocandin-resistant strains against which derivative is 8-fold more potent than parent” value turned out to be 21%, the “share of echinocandin-resistant strains against which derivative is 16-fold more potent than parent” value is recorded as 21% and the “share of strains in the entire tested panel against which antifungal activity is improved relative to parent” value is 72%. The “share of echinocandin-resistant strains against which derivative is 2- to 4-fold more potent than parent” value (2 vs RZF) was 29%.

Consider `CCCCCOc1ccc(-c2ccc(-c3ccc(C(=O)N[C@H]4C[C@@H](O)[C@@H](O)NC(=O)[C@@H]5[C@@H](O)[C@@H](C)CN5C(=O)[C@H]([C@@H](C)O)NC(=O)[C@H]([C@H](O)Cc5ccc(O)cc5)NC(=O)[C@@H]5C[C@@H](O)CN5C(=O)[C@H]([C@@H](C)O)NC4=O)cc3)cc2)cc1` [Compound 1, dehydroxy-ANF] ({pTerphenylCO(4''-OnC5H11)}-[Orn(4R-OH,5R-OH)]T[Hyp][hTyr(3R-OH)]T[Pro(3S-OH,4S-Me)]; lactam 1-C), for which, for the setting “1 vs ANF”, the “share of echinocandin-resistant strains against which derivative is 2-fold better than parent” value amounted to 21% and the “share of echinocandin-resistant strains against which derivative is 4-fold more potent than parent” value turned out to be 26%. Further, under “1 vs ANF, 2 vs RZF”, the “share of echinocandin-resistant strains against which activity is similar to that of parent” value is 37%, the “share of echinocandin-resistant strains against which derivative is 8-fold more potent than parent” value was found to be 8%, the “share of echinocandin-resistant strains against which derivative is 16-fold more potent than parent” value is recorded as 8% and the “share of strains in the entire tested panel against which antifungal activity is improved relative to parent” value is 68%.
